Record: PubChem BioAssay AID1224827 (NIAID, 2016)

Test: 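Retest primary hits on a TNF reporter with six siRNAs per gene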 (follow-up of hits)
System: RAW264.7 G9 mouse macrophage reporter clone
Reagents: single siRNA against mouse genes, 100 nM siRNA
Duration: siRNA for 2 days, then LPS about 16 h
Treatment: bacterial lipopolysaccharide (LPS), 10 ng/ml, cells fixed after overnight (about 16 h) stimulation
Read-out: 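Imaged nuclear TNF reporter intensity, background removed, scaled per plate and to non-targeting control wells, as z-scores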
Direction: TNF reporter z-score, mean and TNF reporter z-score: higher = stronger Tnf promoter reporter signal; gene median z, three same-vendor siRNAs: higher = stronger Tnf reporter signal for the gene
Call rule: 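An siRNA is called active when its mean z-score over replicates is at least +2 or at most -2; control wells get no call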
Here is a random part of about 3,800 reagents tested. Of all reagents, about 2,200 (57%) were called active. 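Active means a strong reporter change in either direction; calls are per siRNA, not per gene; qiagen siRNAs gave weaker effects.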 Reagents against one gene are numbered here. No sequences are given here.

gene,siRNA no.,"TNF reporter z-score, mean","gene median z, three same-vendor siRNAs","TNF reporter z-score, repeat 1","TNF reporter z-score, repeat 2",call
Itpkb,1,4.8,-0.796,9.18,0.422,active
Itpkb,2,-0.796,-0.796,-0.234,-1.36,inactive
Itpkb,3,-4.32,-0.796,-4.35,-4.28,active
Slc25a4,1,4.94,1.28,8.01,1.87,active
Slc25a4,2,2.16,1.28,3.62,0.691,active
Slc25a4,3,0.00733,1.28,-0.199,0.214,inactive
Agbl5,1,1.35,-0.419,0.939,1.76,inactive
Agbl5,2,-0.419,-0.419,-0.643,-0.194,inactive
Agbl5,3,-3.46,-0.419,-3.48,-3.44,active
Agbl5,4,-0.435,-1.21,-0.139,-0.731,inactive
Agbl5,5,-0.899,-1.21,-0.117,-1.68,inactive
Agbl5,6,-3.99,-1.21,-3.25,-4.73,active
Or1e32,1,-0.459,-3.32,-1.95,1.04,inactive
Or1e32,2,-3.69,-3.32,-2.84,-4.55,active
Or1e32,3,-4.19,-3.32,-4.56,-3.81,active
Or1e32,4,0.106,-1.72,1.86,-1.65,inactive
Or1e32,5,-1.39,-1.72,-1.79,-0.984,inactive
Or1e32,6,-4.61,-1.72,-5.7,-3.52,active
Nagpa,1,0.0396,-0.677,0.151,-0.0715,inactive
Nagpa,2,-0.0454,-0.677,-1.28,1.19,inactive
Nagpa,3,-4.95,-0.677,-4.62,-5.27,active
Nagpa,4,1.33,-0.0614,3.22,-0.549,inactive
Nagpa,5,-0.0614,-0.0614,0.0827,-0.206,inactive
Nagpa,6,-0.606,-0.0614,0.511,-1.72,inactive
BC051665,1,14.5,-0.948,13.7,15.3,active
BC051665,2,-0.948,-0.948,-1.5,-0.399,inactive
BC051665,3,-4.36,-0.948,-4.33,-4.39,active
BC051665,4,4.73,1.87,7.2,2.26,active
BC051665,5,2.91,1.87,4.34,1.47,active
BC051665,6,-1.29,1.87,-1.95,-0.636,inactive
Irf8,1,5.18,-3.25,5.93,4.43,active
Irf8,2,-3.25,-3.25,-3.24,-3.27,active
Irf8,3,-3.87,-3.25,-4.07,-3.67,active
Irf8,4,2.99,-0.957,6.32,-0.33,active
Irf8,5,-1.77,-0.957,-1.52,-2.01,inactive
Irf8,6,-2.22,-0.957,-0.394,-4.06,active
Ctnna1,1,0.469,-2.5,-0.718,1.66,inactive
Ctnna1,2,-2.75,-2.5,-4.13,-1.37,active
Ctnna1,3,-3.84,-2.5,-4.04,-3.64,active
Ctnna1,4,1.87,-0.532,2.79,0.945,inactive
Ctnna1,5,-0.532,-0.532,-0.329,-0.736,inactive
Ctnna1,6,-2.87,-0.532,-3.41,-2.34,active
Ifna4,1,0.58,-3.52,0.344,0.817,inactive
Ifna4,2,-3.64,-3.52,-3.7,-3.58,active
Ifna4,3,-4.25,-3.52,-3.45,-5.06,active
Ifna4,4,9.61,-1.05,16.5,2.76,active
Ifna4,5,-1.16,-1.05,-0.37,-1.94,inactive
Ifna4,6,-2.45,-1.05,-1.72,-3.18,active
Scart2,1,-1.07,-2.11,-1.66,-0.474,inactive
Scart2,2,-1.95,-2.11,-2.56,-1.34,inactive
Scart2,3,-3.52,-2.11,-4.09,-2.94,active
Scart2,4,4.11,2.37,7.85,0.375,active
Scart2,5,2.59,2.37,5.9,-0.712,active
Scart2,6,2.1,2.37,4.37,-0.17,active
Angel2,1,-0.198,-4.47,-1.19,0.796,inactive
Angel2,2,-4.7,-4.47,-4.87,-4.53,active
Angel2,3,-4.73,-4.47,-5.06,-4.41,active
Angel2,4,2.5,-0.302,4.86,0.144,active
Angel2,5,0.55,-0.302,1.85,-0.748,inactive
Angel2,6,-3.13,-0.302,-2.89,-3.37,active
Psma3,1,0.263,-2.24,-0.562,1.09,inactive
Psma3,2,-2.24,-2.24,-2.8,-1.67,active
Psma3,3,-3.48,-2.24,-3.34,-3.61,active
Mesp2,1,-3.29,-3.29,-3.28,-3.3,active
Mesp2,2,-3.47,-3.29,-2.87,-4.08,active
Mesp2,3,-3.84,-3.29,-4.56,-3.12,active
Mesp2,4,-0.887,-2.41,-2.06,0.289,inactive
Mesp2,5,-2.99,-2.41,-2.13,-3.85,active
Mesp2,6,-3.67,-2.41,-4.65,-2.7,active
Supt5,1,-2.67,-4.61,-2.59,-2.74,active
Supt5,2,-4.61,-4.61,-4.6,-4.63,active
Supt5,3,-4.77,-4.61,-4.93,-4.62,active
Supt5,4,-2.76,-3.29,-2.92,-2.59,active
Supt5,5,-2.87,-3.29,-1.97,-3.76,active
Supt5,6,-3.82,-3.29,-4,-3.65,active

Looked up above:
Result for Psma3 #2 in “call”: active
Under “TNF reporter z-score, mean”, Ifna4 #2 is entered as -3.64
Value for Itpkb #1 under “gene median z, three same-vendor siRNAs”: -0.796
Under “gene median z, three same-vendor siRNAs”, Ctnna1 #2 reads -2.5
